Experimental data from PubChem BioAssay AID493014 (National Center for Advancing Translational Sciences (NCATS), 2011).
The list shows a part of the results. These are further read-outs of the screen, such as a control signal, another cell line or another target. No call is given for them. The list favours compounds with an active or inconclusive main result. Potencies come from curve fits of mixed quality, noted in brackets.

Assay: qHTS Assay to Find Inhibitors of Chronic Active B-Cell Receptor Signaling
Conditions: ABC-DLBCL IkBa-CBG/CBR reporter, luminescence ratio (green luciferase fused to IkBa over red control in TMD8 lymphoma cells), 4 h
Procedure, shortened: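 Doxycycline induced both beetle luciferases in TMD8 lymphoma cells; IKK-driven degradation limits the IkappaBalpha-fused green signal, while red luminescence normalises for cell number and nonspecific effects. Compounds tested up to 46 uM, 4 hrs.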

[1] = measured here: CBR red luminescence, cell number
[2] = measured here: IkBa-CBG green luminescence

SMILES | AC50 [1] | AC50 [2]
O=C(COc1ccc2c(c1)OCO2)Nc1nncs1 | 7.08 µM [falling, partial curve, poor fit] | 
CC1=CC(C)C(C(=O)O)C(C(=O)N2CCN(C)CC2)C1 (configuration not stated) | 35.5 µM [rising, single point] | 
CCCNC(=O)c1ccccc1NC(=O)c1ccc2c(c1)NC(=O)C(C)S2 (configuration not stated) | 14.1 µM [falling, partial curve, poor fit] | 
CC(=O)C1=C(C)OC(N)=C(C#N)C1c1cc([N+](=O)[O-])ccc1Cl (configuration not stated) | 22.4 µM [falling, partial curve, poor fit] | 17.8 µM [falling, single point]
O=C(CSCc1ccc(C(=O)O)cc1)Nc1ccc2ccccc2c1 | 14.1 µM [falling, partial curve, poor fit] | 
CSc1ccccc1OCc1cc(C(=O)N[C@H]2CCCCNC2=O)no1 | 6.31 µM [falling, full curve, poor fit] | 
CC1CCc2c(sc3nc(SCC(=O)O)n(-c4ccccc4)c(=O)c23)C1 (configuration not stated) | 3.55 µM [rising, full curve, poor fit] | 
N#Cc1ccc(-c2ccco2)nc1SCC(=O)c1ccc(Cl)cc1 | 1 µM [rising, full curve, poor fit] | 
C[C@@H](C(=O)N1CCN(C(=O)OC(C)(C)C)CC1)n1cc(CCCN=C(NC(=O)OC(C)(C)C)NC(=O)OC(C)(C)C)nn1 | 35.5 µM [rising, single point] | 
Cc1cc2c(c(=O)n1CCN(C)C)C(c1ccncc1)C(C#N)=C(N)O2 (configuration not stated) | 6.51 µM [falling, single point] | 
CCOC(=O)Nc1ccc2nc(N3CCCCCC3)sc2c1 | 7.08 µM [rising, full curve, poor fit] | 11.2 µM [falling, partial curve]
CCc1nc(SCC(=O)Nc2ccc(C(=O)O)cc2)n[nH]1 | 29.1 µM [falling, single point] | 
COc1ccc(-c2nc3ccccc3o2)cc1NC(=O)c1ccc(Br)o1 | 1 µM [rising, full curve, poor fit] | 
Cc1cc(C(=O)NCCC(c2ccccc2)c2ccccc2)c(C)o1 | 29.1 µM [falling, single point] | 
CO/N=C/C(c1ccc(Cl)nc1)S(=O)(=O)c1ccccc1 (configuration not stated) | 5.62 µM [rising, single point] | 
Cc1csc(NC(=O)CSc2[nH]c(=O)ncc2C)n1 | 0.058 µM [falling, partial curve, poor fit] | 0.731 µM [rising, partial curve, poor fit]
COc1ccc(/C=C/C(=O)Nc2ccc(C)c(S(=O)(=O)N3CCOCC3)c2)cc1 | 3.26 µM [falling, partial curve, poor fit] | 
Cc1ccc(/C=N/n2c(-c3ccco3)n[nH]c2=S)s1 | 1.64 µM [falling, partial curve] | 
COc1ccc(NC(=O)Nc2cccc([N+](=O)[O-])c2)cc1Cl | 29.1 µM [falling, single point] | 
CCC(=O)NC(c1cccs1)c1cc(Br)c2cccnc2c1O (configuration not stated) | 4.61 µM [falling, partial curve] | 

SMILES | AC50 [1] | AC50 [2]
CC(=O)N1CCC(=NNC(=O)c2cccs2)CC1 | 8.2 µM [falling, single point] | 
COc1cccc(CN(C(=O)Cc2c[nH]c3ccccc23)C(C(=O)NC2CCCCC2)c2cccs2)c1 (configuration not stated) | 32.6 µM [falling, single point] | 32.6 µM [rising, partial curve, poor fit]
O=C1CN(C(=O)COC(=O)/C=C/c2ccc(F)cc2)c2ccccc2N1 | 2.91 µM [rising, full curve] | 
CCOc1ccccc1Nc1nc(-c2sc(NC(=O)c3cccc(Cl)c3)nc2C)cs1 | 6.31 µM [falling, partial curve, poor fit] | 
COC(=O)[C@H](CCSC)NC(=O)c1cc2c(cn1)[nH]c1ccccc12 | 0.501 µM [falling, full curve, poor fit] | 
O=C(CCS(=O)(=O)c1cccc2nonc12)NCCc1ccccc1Cl | 3.66 µM [rising, single point] | 
CN1CCCN(C(=O)c2cc(=O)[nH]c3ccccc23)c2nc3ccccc3nc21 | 2.59 µM [rising, full curve, poor fit] | 
Cn1c(SCC(=O)N2CCCc3ccccc32)ncc(C(=O)Nc2ccccc2)c1=O | 0.447 µM [falling, full curve] | 
COc1ccccc1C(=O)NNC(=O)C(=O)Nc1cccc(Cl)c1C | 12.6 µM [falling, single point] | 
C=CCC1(CC=C)CCCN1C(=O)Cn1nnnc1CN(C)C(C)C | 0.112 µM [falling, full curve, poor fit] | 
Cc1ccccc1OCCSc1nnc(C)n1-c1ccccc1 | 13 µM [rising, single point] | 
COC(=O)c1cccc(C23CC4(C2)[C@H](CN(C)[C@@H]4c2ccccc2)C3c2ccccc2)c1 (some centres not stated) | 4.47 µM [falling, full curve, poor fit] | 
Cc1ccc(Cl)cc1N1CCN(C(=O)c2noc(C)c2[N+](=O)[O-])CC1 | 35.5 µM [falling, single point] | 
CCN(CC)c1c([N+](=O)[O-])c(=O)sc2ccccc12 | 29.1 µM [falling, single point] | 
O=C(Nc1nc(-c2ccccc2)ns1)c1cccs1 | 1.84 µM [falling, full curve, poor fit] | 
Cc1n[nH]c(=O)c2c(NC(=O)CSc3c(Cl)cccc3Cl)oc(C)c12 | 29.1 µM [rising, single point] | 
COC(=O)c1ccccc1-c1ccc(/C=N/Nc2nc(N3CCCC3)nc(N3CCCC3)n2)o1 | 35.5 µM [falling, single point] | 11.2 µM [rising, partial curve, poor fit]
O=C(NNC(=O)c1ccco1)c1csc(N2CCOCC2)n1 | 23.1 µM [falling, single point] | 20.6 µM [rising, partial curve, poor fit]
CCCc1nnc(NC(=O)c2ccncc2)s1 | 25.1 µM [falling, single point] | 
CCN(CC)c1ccc(C(=O)OCC(=O)Nc2sccc2C#N)cc1 | 2.59 µM [rising, full curve] | 

3 compounds out of the list, sorted by count of non-hydrogen atoms, ascending.
SMILES | AC50 [1] | AC50 [2]
CC(=O)N1CCC(=NNC(=O)c2cccs2)CC1 | 8.2 µM [falling, single point] | 
COc1ccccc1C(=O)NNC(=O)C(=O)Nc1cccc(Cl)c1C | 12.6 µM [falling, single point] | 
COC(=O)c1ccccc1-c1ccc(/C=N/Nc2nc(N3CCCC3)nc(N3CCCC3)n2)o1 | 35.5 µM [falling, single point] | 11.2 µM [rising, partial curve, poor fit]

Further entries follow.

SMILES | AC50 [1] | AC50 [2]
Cc1cc(/C([O-])=C(/C(=S)Nc2ccc(F)cc2)[n+]2ccccc2)c(C)n1-c1ccc(F)cc1 | 3.55 µM [falling, full curve, poor fit] | 
COc1ccc(-n2cc(-c3ccccc3)c3c(NC4CCCC4)ncnc32)cc1 | 2.51 µM [rising, full curve] | 
CC(=O)Nc1ccc(S(=O)(=O)NCCC(=O)Nc2ccc(C)c(Cl)c2)cc1 |  | 23.1 µM [falling, partial curve, poor fit]
O=C(O)c1cccc2c1C(=O)c1ccccc1-2 | 15.8 µM [rising, single point] | 17.8 µM [rising, partial curve, poor fit]
CC[C@]1(O)C[C@@H]2CN(CCc3c([nH]c4ccccc34)[C@@](C(=O)OC)(c3cc4c(cc3OC)N(C)[C@H]3[C@@](O)(C(=O)OC)[C@H](OC(C)=O)[C@]5(CC)C=CCN6CC[C@]43[C@@H]65)C2)C1 | 2.24 µM [rising, full curve] | 2.24 µM [falling, full curve]
Cc1ccc(-c2nnc(NCc3nc4ccccc4[nH]3)c3ccccc23)cc1S(=O)(=O)N1CCCCC1 | 29.1 µM [falling, single point] | 
CC(C)CN(CC(C)C)C(=O)CN1C(=O)NC2(CCc3ccccc3C2)C1=O (configuration not stated) | 6.31 µM [rising, single point] | 
Cc1cc(C)cc(NC(=O)CSc2nc(=O)n(Cc3ccccn3)c3c2CCC3)c1 | 0.794 µM [falling, full curve, poor fit] | 
C/C=C(\C)C(=O)N1CC2(CC(c3cccc(NC(=O)COc4ccc(Cl)cc4)c3)=NO2)C[C@@H]1C(N)=O (some centres not stated) | 7.08 µM [falling, full curve, poor fit] | 
COc1ccc(Cc2nc3ccc(C(=O)NCCn4cccn4)cc3o2)cc1 | 2.51 µM [rising, full curve, poor fit] | 
Cc1ccc(N(CC(O)CN2CCCCC2)S(=O)(=O)c2ccccc2)cc1 (configuration not stated) | 35.5 µM [falling, single point] | 
COc1ccccc1NC(=O)CON=C(N)CC(=O)NC1CCCCC1 | 8.2 µM [falling, partial curve] | 
Cc1ccc(Cl)cc1NC(=S)N/N=C/c1cccc2ccccc12 | 11.2 µM [rising, single point] | 10 µM [falling, partial curve]
CCOC(=O)CNC(=O)c1ccc(Br)s1 | 0.562 µM [rising, full curve, poor fit] | 
COC(=O)c1c(NC(=O)COC(=O)CCNS(=O)(=O)c2ccc(NC(C)=O)cc2)sc(C)c1C | 23.1 µM [rising, single point] | 
COc1cccc(/C=N/NC(=O)c2cc3cc([N+](=O)[O-])ccc3s2)c1O |  | 0.651 µM [falling, full curve, poor fit]
O=C1C(=C(O)c2ccccc2)C(=O)c2ccccc21 | 35.5 µM [falling, single point] | 
NCC(c1ccc(Cl)cc1Cl)c1c[nH]c2ccccc12 (configuration not stated) | 10 µM [falling, partial curve, poor fit] | 
